Our source for the log2 fold change values is the supplement of paper PMC10849652.

The chains behind the UniProt entries cited, without tags or fusion partners. Where a name states a change or a piece, a line headed by the entry shows the natural chain unless it says otherwise.
UniProt Q9H2J4: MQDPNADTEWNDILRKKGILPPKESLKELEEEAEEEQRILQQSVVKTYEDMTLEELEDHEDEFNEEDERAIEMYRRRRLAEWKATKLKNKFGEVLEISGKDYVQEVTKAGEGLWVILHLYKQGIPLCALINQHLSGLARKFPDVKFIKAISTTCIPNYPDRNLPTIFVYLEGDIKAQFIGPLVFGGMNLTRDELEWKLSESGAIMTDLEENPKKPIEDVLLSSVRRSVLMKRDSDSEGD
UniProt H7BZJ3: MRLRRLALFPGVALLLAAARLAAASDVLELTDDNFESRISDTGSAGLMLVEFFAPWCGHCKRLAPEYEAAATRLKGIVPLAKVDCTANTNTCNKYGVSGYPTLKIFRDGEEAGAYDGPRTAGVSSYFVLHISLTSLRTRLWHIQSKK
UniProt O95453: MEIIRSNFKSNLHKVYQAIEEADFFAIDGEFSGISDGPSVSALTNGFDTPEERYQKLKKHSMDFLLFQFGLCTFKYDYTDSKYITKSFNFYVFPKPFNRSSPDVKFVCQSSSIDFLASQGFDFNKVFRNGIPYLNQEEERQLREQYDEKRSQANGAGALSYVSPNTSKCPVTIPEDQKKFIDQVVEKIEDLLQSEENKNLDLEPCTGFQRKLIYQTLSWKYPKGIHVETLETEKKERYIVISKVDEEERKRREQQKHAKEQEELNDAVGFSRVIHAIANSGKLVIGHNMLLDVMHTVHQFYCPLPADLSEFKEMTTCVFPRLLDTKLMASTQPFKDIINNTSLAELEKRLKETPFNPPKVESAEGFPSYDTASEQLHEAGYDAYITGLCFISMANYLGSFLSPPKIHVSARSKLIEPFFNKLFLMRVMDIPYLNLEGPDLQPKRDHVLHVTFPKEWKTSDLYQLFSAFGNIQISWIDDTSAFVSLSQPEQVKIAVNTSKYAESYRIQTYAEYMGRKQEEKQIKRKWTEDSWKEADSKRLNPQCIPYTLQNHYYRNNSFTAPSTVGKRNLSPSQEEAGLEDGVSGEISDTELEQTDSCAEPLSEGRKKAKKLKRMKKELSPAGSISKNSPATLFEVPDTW
UniProt Q9UKL6: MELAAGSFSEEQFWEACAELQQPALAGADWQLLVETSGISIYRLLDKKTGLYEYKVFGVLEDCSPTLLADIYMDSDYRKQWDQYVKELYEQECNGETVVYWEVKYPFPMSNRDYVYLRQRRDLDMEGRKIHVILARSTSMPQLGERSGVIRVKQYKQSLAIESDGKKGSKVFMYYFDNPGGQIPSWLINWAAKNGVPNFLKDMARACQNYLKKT
UniProt P57721, whole entry, looked up: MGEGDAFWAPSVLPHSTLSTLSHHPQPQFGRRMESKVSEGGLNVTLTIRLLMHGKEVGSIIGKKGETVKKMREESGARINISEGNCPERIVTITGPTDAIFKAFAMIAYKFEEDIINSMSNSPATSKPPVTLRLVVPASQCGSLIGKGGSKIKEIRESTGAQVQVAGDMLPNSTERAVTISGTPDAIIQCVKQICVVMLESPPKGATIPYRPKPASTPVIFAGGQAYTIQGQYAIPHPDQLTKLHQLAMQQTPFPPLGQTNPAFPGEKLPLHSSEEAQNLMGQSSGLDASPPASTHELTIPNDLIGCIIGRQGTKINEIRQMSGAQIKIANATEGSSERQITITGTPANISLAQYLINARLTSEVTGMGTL
UniProt Q8WUM4: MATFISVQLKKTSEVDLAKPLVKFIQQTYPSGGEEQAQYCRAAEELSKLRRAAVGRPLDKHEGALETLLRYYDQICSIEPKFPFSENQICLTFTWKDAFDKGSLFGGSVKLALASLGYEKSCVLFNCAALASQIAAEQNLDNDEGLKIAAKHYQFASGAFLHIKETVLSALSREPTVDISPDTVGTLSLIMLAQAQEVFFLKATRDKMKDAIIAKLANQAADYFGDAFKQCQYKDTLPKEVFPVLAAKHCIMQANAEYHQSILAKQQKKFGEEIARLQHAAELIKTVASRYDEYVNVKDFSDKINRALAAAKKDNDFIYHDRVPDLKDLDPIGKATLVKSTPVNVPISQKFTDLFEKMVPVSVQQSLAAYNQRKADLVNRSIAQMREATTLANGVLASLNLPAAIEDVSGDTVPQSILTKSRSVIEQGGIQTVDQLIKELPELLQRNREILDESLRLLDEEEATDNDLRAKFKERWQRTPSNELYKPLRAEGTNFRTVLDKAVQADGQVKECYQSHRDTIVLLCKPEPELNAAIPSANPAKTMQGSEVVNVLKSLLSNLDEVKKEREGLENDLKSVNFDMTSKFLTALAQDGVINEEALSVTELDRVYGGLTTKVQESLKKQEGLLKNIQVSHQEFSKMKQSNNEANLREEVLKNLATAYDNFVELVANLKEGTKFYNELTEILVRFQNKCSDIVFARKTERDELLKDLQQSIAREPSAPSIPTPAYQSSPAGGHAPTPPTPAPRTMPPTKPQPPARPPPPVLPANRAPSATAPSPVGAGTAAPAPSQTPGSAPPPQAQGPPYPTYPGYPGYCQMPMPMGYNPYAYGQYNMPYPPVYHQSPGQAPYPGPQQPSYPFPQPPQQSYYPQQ
UniProt Q13371: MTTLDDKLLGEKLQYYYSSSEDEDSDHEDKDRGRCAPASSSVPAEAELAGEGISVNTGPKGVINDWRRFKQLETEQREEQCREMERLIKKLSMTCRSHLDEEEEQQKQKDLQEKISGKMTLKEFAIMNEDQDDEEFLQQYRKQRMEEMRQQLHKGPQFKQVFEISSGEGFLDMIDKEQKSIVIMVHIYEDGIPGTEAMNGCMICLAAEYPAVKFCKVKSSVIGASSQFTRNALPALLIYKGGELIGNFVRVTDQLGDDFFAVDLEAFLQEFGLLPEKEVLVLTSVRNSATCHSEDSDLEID
UniProt Q9NQP4, whole entry, looked up: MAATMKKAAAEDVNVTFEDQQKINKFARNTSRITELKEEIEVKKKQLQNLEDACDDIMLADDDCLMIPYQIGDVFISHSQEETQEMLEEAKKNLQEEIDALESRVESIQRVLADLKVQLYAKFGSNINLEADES
UniProt P13667: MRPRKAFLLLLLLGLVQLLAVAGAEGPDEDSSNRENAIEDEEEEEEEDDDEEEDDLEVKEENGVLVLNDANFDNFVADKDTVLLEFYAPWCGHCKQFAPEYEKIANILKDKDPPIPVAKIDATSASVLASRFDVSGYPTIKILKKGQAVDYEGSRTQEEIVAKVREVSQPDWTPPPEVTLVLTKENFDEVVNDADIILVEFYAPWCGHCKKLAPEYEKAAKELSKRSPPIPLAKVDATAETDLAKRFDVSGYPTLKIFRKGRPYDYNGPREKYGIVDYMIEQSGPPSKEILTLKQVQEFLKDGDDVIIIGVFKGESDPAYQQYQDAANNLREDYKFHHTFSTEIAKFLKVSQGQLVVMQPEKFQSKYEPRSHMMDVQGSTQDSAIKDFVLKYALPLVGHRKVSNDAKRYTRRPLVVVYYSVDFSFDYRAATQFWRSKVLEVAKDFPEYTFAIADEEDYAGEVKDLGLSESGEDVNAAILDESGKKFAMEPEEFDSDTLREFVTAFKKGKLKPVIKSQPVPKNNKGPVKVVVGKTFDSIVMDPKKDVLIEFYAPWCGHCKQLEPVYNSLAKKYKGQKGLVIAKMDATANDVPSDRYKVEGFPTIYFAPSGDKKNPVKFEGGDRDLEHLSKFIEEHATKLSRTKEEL
UniProt Q6L8Q7: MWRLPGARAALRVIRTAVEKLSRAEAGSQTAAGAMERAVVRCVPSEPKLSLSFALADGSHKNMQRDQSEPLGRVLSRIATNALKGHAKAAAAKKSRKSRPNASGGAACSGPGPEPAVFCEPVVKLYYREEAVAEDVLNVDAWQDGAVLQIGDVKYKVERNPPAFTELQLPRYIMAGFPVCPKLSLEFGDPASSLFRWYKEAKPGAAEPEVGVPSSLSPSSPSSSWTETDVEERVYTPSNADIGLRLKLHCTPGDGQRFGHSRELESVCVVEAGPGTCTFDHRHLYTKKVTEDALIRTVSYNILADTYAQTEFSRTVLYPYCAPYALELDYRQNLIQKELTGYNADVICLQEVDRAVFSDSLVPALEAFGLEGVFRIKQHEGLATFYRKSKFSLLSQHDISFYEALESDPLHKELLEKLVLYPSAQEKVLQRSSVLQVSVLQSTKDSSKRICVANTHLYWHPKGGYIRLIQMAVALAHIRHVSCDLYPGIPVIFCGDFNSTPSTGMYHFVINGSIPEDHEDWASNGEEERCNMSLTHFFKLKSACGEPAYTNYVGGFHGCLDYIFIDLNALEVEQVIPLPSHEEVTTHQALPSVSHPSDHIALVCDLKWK
UniProt O00408, whole entry, looked up: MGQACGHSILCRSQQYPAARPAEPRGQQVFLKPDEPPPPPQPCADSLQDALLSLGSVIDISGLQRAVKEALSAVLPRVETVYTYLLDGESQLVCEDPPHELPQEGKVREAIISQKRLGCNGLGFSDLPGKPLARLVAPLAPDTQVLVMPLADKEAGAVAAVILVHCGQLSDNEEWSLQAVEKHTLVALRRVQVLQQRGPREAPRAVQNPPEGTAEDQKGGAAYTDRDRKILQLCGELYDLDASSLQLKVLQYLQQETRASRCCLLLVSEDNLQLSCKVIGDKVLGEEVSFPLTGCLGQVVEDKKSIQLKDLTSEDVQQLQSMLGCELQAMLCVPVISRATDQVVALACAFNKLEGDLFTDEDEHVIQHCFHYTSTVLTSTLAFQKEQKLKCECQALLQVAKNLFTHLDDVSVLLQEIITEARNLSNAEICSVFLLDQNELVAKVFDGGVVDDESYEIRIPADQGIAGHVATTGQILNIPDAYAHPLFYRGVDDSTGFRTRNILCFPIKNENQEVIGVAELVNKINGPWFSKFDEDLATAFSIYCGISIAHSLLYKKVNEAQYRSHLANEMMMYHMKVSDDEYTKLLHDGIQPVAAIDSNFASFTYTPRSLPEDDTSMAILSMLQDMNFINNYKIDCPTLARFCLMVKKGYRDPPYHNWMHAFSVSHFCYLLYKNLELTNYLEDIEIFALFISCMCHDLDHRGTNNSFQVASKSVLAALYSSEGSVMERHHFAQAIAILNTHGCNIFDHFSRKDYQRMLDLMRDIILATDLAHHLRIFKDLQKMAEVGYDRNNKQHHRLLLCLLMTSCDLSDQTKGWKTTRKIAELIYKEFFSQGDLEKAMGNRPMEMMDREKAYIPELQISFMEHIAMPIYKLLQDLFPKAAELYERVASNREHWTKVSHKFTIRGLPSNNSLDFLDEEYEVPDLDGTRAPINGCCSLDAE
UniProt O15212, whole entry, looked up: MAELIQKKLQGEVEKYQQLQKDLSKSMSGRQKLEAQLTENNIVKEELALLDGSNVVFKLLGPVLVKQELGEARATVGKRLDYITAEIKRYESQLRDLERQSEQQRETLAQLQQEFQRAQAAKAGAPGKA
UniProt Q9UHV9, whole entry, looked up: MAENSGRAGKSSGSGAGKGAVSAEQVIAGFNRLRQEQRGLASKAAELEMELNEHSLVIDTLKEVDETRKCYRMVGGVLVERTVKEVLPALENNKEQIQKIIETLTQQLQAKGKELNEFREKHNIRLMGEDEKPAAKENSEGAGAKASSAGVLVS
UniProt Q6ZW49, whole entry, looked up: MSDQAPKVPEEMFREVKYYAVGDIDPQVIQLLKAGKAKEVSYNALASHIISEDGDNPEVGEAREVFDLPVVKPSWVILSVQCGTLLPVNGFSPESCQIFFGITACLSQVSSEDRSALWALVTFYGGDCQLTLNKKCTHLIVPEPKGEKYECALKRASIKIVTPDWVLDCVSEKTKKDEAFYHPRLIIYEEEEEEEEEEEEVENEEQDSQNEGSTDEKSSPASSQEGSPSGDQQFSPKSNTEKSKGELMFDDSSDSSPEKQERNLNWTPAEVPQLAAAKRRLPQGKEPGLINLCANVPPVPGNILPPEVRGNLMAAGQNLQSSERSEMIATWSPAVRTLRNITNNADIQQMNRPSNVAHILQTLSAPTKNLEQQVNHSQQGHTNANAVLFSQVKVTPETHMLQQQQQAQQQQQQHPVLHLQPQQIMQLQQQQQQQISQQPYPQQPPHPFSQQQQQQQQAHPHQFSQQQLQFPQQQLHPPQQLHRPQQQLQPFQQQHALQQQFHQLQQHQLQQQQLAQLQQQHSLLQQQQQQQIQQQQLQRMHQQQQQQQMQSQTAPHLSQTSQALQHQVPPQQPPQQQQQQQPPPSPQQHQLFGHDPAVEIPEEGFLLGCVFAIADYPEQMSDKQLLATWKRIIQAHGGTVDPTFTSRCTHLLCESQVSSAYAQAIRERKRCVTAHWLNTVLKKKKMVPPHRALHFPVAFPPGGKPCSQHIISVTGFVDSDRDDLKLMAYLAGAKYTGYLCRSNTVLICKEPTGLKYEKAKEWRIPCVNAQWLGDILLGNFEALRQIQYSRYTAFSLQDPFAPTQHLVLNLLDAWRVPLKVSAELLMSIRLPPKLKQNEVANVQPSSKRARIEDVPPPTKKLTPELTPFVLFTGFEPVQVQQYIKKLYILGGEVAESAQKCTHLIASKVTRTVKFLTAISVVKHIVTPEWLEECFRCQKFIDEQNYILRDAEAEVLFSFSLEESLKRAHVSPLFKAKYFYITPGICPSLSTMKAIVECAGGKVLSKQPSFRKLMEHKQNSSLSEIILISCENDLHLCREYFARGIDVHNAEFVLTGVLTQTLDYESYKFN
UniProt Q9NUG6, whole entry, looked up: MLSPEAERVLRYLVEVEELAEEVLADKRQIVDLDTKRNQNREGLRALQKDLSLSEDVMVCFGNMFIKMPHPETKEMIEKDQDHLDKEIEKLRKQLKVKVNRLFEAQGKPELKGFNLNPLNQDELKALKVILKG

The other results are listed elsewhere or left out.

Compound in this test: Cc1cc(Nc2cc(N3CCN(C)CC3)nc(Sc3ccc(NC(=O)C4CC4)cc3)n2)n[nH]1 [tozasertib]
Nature of the test: log2 fold change, soluble protein after heating vs DMSO (PISA); higher = thermal stabilisation; K562 lysate, 10 uM; active = over 0.2 and 3.5 SD of the protein, either way, in both replicates (recomputed). Summed up:
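Values give the log-two fold change in thermal stability against solvent controls, from duplicates. Crude K562 extract at 1 mg/mL protein, made by dounce homogenisation in PBS pH 7.4 with 1 mM MgCl2, was treated with 10 μM compound for 30 min. After 3 min heating across 48°C-58°C, aliquots were pooled, adjusted to 0.5% NP-40 at 4°C and centrifuged at 21,000xg for 90 min. The supernatant was measured by TMTpro 16plex LC-MS/MS with channel sums equalised.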
Take PDCL3 (UniProt Q9H2J4): the log2 fold change is inactive: 0.003.

With PATL1 (UniProt Q86TB9), the log2 fold change is inactive: 0.012.

Regarding PDIA3 (UniProt H7BZJ3), the log2 fold change is inactive: 0.046.

Consider PARN (UniProt O95453), for which the log2 fold change is inactive: 0.045.

For the target PEX5 isoform 4 (UniProt P50542), the log2 fold change was inactive: 0.044.

For the target PFKM isoform 3 (UniProt P08237), the log2 fold change was inactive: -0.013.

Turning to PCTP (UniProt Q9UKL6), the log2 fold change is inactive: 0.017.

Turning to PCBP3 (UniProt P57721), the log2 fold change was inactive: 0.001.

For the target PDCD6IP (UniProt Q8WUM4), the log2 fold change is inactive: 0.033.

On to PDCL (UniProt Q13371), for which the log2 fold change was inactive: -0.027.

Consider PFDN4 (UniProt Q9NQP4), for which the log2 fold change was inactive: -0.03.

Turning to PCBP2 (UniProt H3BRU6), the log2 fold change was inactive: -0.112.

PDCD6IP isoform 2 (UniProt Q8WUM4): the log2 fold change was inactive: 0.024.

In the case of PDIA4 (UniProt P13667), the log2 fold change was inactive: 0.

For PDE12 (UniProt Q6L8Q7), the log2 fold change was inactive: -0.018.

As for PCYT2 isoform 3 (UniProt Q99447), the log2 fold change was inactive: 0.03.

In the case of PDE2A (UniProt O00408), the log2 fold change was inactive: 0.049.

On to PCBP2 isoform 8 (UniProt Q15366), for which the log2 fold change was inactive: -0.026.

With PFDN6 (UniProt O15212), the log2 fold change is inactive: 0.016.

Regarding PFDN2 (UniProt Q9UHV9), the log2 fold change is inactive: 0.053.

With PDCD10 (UniProt Q9BUL8), the log2 fold change was inactive: 0.023.

For PAXIP1 (UniProt Q6ZW49), the log2 fold change is inactive: 0.028.

PDRG1 (UniProt Q9NUG6): the log2 fold change is inactive: -0.03.
